Results on 6 molecules are retold here after patent US20160031999A1.

In test [1] the target is human IL-11Rα (form used in the assay not stated) (human) (UniProt Q14626). As to the kind of experiment: Biacore (Table 3). (Surface plasmon resonance follows binding to a sensor surface in real time, without labels.)
Test [2] has as its target T1, K66R mutant of soluble human IL-11Rα (SEQ ID NO: 96) (human) (UniProt Q14626).
T1 sequence: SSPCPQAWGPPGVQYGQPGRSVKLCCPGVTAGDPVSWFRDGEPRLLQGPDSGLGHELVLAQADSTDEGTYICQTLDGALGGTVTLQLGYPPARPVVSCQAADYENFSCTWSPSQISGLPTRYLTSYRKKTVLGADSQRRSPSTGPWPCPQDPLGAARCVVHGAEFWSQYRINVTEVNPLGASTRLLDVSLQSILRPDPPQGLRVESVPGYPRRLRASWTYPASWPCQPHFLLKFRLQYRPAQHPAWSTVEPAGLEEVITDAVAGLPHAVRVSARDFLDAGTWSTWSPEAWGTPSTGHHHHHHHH
As to the kind of experiment: Biacore.

For test [3], the target named is T2, V117E mutant of soluble human IL-11Rα (SEQ ID NO: 95) (human) (UniProt Q14626).
T2 sequence: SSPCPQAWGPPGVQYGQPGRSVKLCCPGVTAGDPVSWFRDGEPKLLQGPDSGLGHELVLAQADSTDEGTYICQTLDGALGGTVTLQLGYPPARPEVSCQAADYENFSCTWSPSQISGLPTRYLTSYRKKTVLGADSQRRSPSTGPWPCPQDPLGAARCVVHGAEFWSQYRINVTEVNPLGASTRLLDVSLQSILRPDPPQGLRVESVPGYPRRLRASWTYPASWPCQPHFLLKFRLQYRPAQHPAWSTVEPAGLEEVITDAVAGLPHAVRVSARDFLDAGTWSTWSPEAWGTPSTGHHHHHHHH
Briefly: Biacore.

The target of test [4] is T3, mouse IL-11Rα on transfected cells (mouse) (UniProt P70225).
T3 sequence: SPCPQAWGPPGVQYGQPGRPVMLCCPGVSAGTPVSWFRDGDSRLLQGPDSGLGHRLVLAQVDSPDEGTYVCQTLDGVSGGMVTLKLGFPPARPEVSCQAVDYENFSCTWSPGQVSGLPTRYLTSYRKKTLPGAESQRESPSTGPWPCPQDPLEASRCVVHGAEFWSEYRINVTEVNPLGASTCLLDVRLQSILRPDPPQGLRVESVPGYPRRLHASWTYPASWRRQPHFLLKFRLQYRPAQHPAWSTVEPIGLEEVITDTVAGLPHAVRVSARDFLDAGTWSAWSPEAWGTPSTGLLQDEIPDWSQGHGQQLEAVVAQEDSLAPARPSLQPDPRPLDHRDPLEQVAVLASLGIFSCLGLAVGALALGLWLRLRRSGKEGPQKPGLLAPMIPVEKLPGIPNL
As to the kind of experiment: binding to transfected cells.

These are yes or no findings as the source states them, for the method shown. Some entries that bind do so weakly or less than the wild type.

B1: hu8E2-TS-306 (antibody, V domains shown)
VH: EVQLLESGGGLVQPGGSLRLSCAASGFTFSWYSMTWVRQAPGKGLEWVSSIVPSGGHTQYADSVKGRFTISRDNSKNTLYLQMNSLRAEDTAVYYCAKGPGWGSFDLWGRGTLVTVSS
VL: DIQMTQSPSSLSASVGDRVTITCQASQDVDKYVEWYQQKPGKAPKLLIYDASNLQTGVPSRFSGSGSGTDFTFTISSLQPEDIATYYCQQYDNLSPTFGPGTKVDIK
On to B1, for which the binding result in test [1] was “binds”.

B2: hu8E2-TS-4 (antibody, V domains shown)
VH: EVQLLESGGGLVQPGGSLRLSCAASGFTFSWYSMTWVRQAPGKGLEWVSSIVPSGGHTQYADSVKGRFTISRDNSKNTLYLQMNSLRAEDTAVYYCAKGPGWGSFDLWGRGTLVTVSS
VL: DIQMTQSPSSLSASVGDRVTITCQASQDINNYLNWYQQKPGKAPKLLIYDASNLQTGVPSRFSGSGSGTDFTFTISSLQPEDIATYYCQQHEFQSPTFGPGTKVDIK
B2: in test [1], the binding result was “binds”.

B3: hu8E2-TS-51 (antibody, V domains shown)
VH: EVQLLESGGGLVQPGGSLRLSCAASGFTFSWYSMTWVRQAPGKGLEWVSSIVPSGGHTQYADSVKGRFTISRDNSKNTLYLQMNSLRAEDTAVYYCAKGPGWGSFDLWGRGTLVTVSS
VL: DIQMTQSPSSLSASVGDRVTITCQASQDINNYLNWYQQKPGKAPKLLIYDASNLQTGVPSRFSGSGSGTDFTFTISSLQPEDIATYYCQQYESQWPFFGPGTKVDIK
As for B3, the binding entry in test [1] is “binds”.

B4: hu8E2-TS-7 (antibody, V domains shown)
VH: EVQLLESGGGLVQPGGSLRLSCAASGFTFSWYSMTWVRQAPGKGLEWVSSIVPSGGHTQYADSVKGRFTISRDNSKNTLYLQMNSLRAEDTAVYYCAKGPGWGSFDLWGRGTLVTVSS
VL: DIQMTQSPSSLSASVGDRVTITCQASQDINNYLNWYQQKPGKAPKLLIYDASNLQTGVPSRFSGSGSGTDFTFTISSLQPEDIATYYCQQHENQSPTFGPGTKVDIK
Turning to B4, in test [1], the binding entry is listed as “binds”.

B5: hu8E2-TS-2 (antibody, V domains shown)
VH: EVQLLESGGGLVQPGGSLRLSCAASGFTFSWYSMTWVRQAPGKGLEWVSSIVPSGGHTQYADSVKGRFTISRDNSKNTLYLQMNSLRAEDTAVYYCAKGPGWGSFDLWGRGTLVTVSS
VL: DIQMTQSPSSLSASVGDRVTITCQASQDINNYLNWYQQKPGKAPKLLIYDASNLQTGVPSRFSGSGSGTDFTFTISSLQPEDIATYYCQQAEDQSPTFGPGTKVDIK
B5: the binding entry in test [1] is listed as “binds”.

B6: antibody 8E4 (antibody, human IgG4 S228P, lambda, V domains shown)
VH: EVQLLESGGGLVQPGGSLRLSCAASGFTFSWYFMGWVRQAPGKGLEWVSYIYPSGGSTGYADSVKGRFTISRDNSKNTLYLQMHSLRAEDTAVYYCARDEGYCSSTSCYFDAFDIWGQGTMVTVSS
VL: QSALTQPPSASGSPGQSVAISCTGTSSDVGGYNFVSWYQQHPGKAPKLLIYEVTKRPSGVPDRFSGSKAGNTASLTVSGLQAEDEADYYCSSYGGSNNAGVFGTGTKVTVLG
In the case of B6, the binding result in test [2], in test [3] and in test [4] was “binds” throughout.
